“Also recorded” adds a separate entry of the source. Not every detail of the peptide structures is certain; ends, links or a residue may be inferred. No end group written: not given here.
Experiments:
[1] = test system: internalized P. aeruginosa ATCC 9027 in HEKa keratinocytes; experiment: P. aeruginosa-infected HEKa keratinocytes; type: cell-based, Pseudomonas aeruginosa; conditions: 30 μg/ml, 2 hours
Protocol: Cell infection: Adult human epidermal keratinocytes HEKa (Invitrogen, Carlsbad, Calif.) cells were seeded in 24-well plates (Corning) and grown until they reached confluence (48 h) in EpiLife medium (Thermo Scientific) supplemented with human keratinocyte growth supplements (HKGS) containing 0.2% v/v bovine pituitary extract, 5 μg/ml bovine insulin, 0.18 μg/ml hydrocortisone, 5 μg/ml bovine transferrin, and 0.2 ng/ml human epidermal growth factor (EGF) (Invitrogen). The bacterial strain P. aeruginosa ATCC 9027 was grown in brain heart infusion (BHI) media at 37° C. with mild shaking and then harvested by centrifugation. Bacterial suspension (MOI 10) in EpiLife medium was co-incubated with keratinocytes for 2 hours at 37° C. and 5% CO2. The medium was aspirated and the cells were washed three times with PBS to remove non-adherent bacteria. In order to kill extracellular bacteria, cells were incubated for 1 hour in EpiLife without HKGS supplemented with 100 μg/ml of gentamicin. The medium was then aspirated and the infected cells were washed three times, as described above. Three hundred microliters of peptide solution (30 μg/ml) in EpiLife without HKGS was added to each well and the plate was incubated for 2 hours at 37° C. and 5% CO2. […] The CFU were counted after 24 hours at 37° C.

P. aeruginosa ATCC 9027 = experiment: Membrane potential, DiSC3(5); type: cell-based, Pseudomonas aeruginosa; conditions: 20 μg/ml; 0.1% Triton X-100 positive control
[2] = Circular dichroism (CD) analysis; type: physicochemical; conditions: for Conformation (CD): 10 mM phosphate buffer and 60 mM SDS solution; for α-helical content: 50% TFE, 100 μg/ml peptide
HEKa cells = experiment: In vitro scratch wound closure assay; type: cell-based, human; conditions: 1 μg or 10 μg per ml, 7 hours and 24 hours after wounding
Protocol: In vitro scratch wound closure assays: In vitro wound closure was assayed in confluent cell monolayers of HEKa (Invitrogen) as described elsewhere (Kim et al., Amino Acids 46:2333-2343, 2014). Cells were seeded in 6-well plates (Corning, N.Y., USA) and grown until they reached confluence (48 hours) in EpiLife medium supplemented with HKGS. Cells were starved for 18 hours in EpiLife without HKGS and then scratched once vertically with a 200-μl pipette tip to create an artificial wound. For inhibitor studies, mitomycin C (20 μM final) and AG1478 (0.2 μM final) were added 90 minutes and 10 minutes prior to scratch generation. After being washed twice with PBS to remove cellular debris, cells were treated with DRGN-1, VK25 or LL-37. PBS was used as a negative control. Cells were photographed before peptide treatment and 7 hours and 24 hours after peptide treatment using an EVOS® Cell Imaging Systems (Invitrogen). The same image fields were captured and the wound areas were estimated using ImageJ software (Schneider et al., Nat Methods 9:671-675, 2012).

[3] = test system: full-thickness skin wound; experiment: Mouse full-thickness skin wound model; type: in vivo; conditions: for Wound area compared to original wound area: day 6, 20 μg/wound topically every 2 days
[4] = test system: P. aeruginosa/S. aureus biofilm-infected wounds; experiment: Mixed biofilm-infected mouse skin wound model; conditions: for Bacterial counts of P. aeruginosa in wounds vs control group / Bacterial counts of S. aureus in wounds vs control group: day 6 after first treatment (3 treatments)
S. aureus biofilm = experiment: Anti-biofilm activity (crystal violet staining, confocal microscopy); type: cell-based, Staphylococcus aureus
P. aeruginosa biofilm = experiment: as above; type: cell-based, Pseudomonas aeruginosa
[5] = test system: mixed-culture biofilms of P. aeruginosa and S. aureus; type: cell-based
[6] = test system: plasmid DNA (pTrcHis-LTA4H); experiment: Peptide-DNA binding, gel retardation
EGFR = experiment: Western blotting, EGFR phosphorylation; type: cell-based, human; conditions: 10 μg/ml DRGN-1, HEKa cells
Protocol: FIGS. 8A-8F indicate transactivation of the EGFR-STAT pathway by DRGN-1. Subconfluent keratinocytes were starved for 2 hours in HGKS-free medium and then stimulated with 10 μg/ml DRGN-1. For EGFR inhibition, cells were preincubated with 0.2 μM AG1478 for 10 minutes and subsequently treated with 10 μg/ml DRGN-1. The cells were harvested into lysis buffer at the indicated times. The phosphorylation of EGFR (p-EGFR) and STAT3 (p-STAT3) was analyzed by Western blotting (FIGS. 8A, 8B, 8D, and 8E). EGFR indicates total EGFR protein. FIGS. 8C and 8F are graphs plotting densitometric analyses of the expression of phosphoprotein relative to unphosphorylated proteins (pEGFR/EGFR, FIG. 8C; pSTAT3/STAT3, FIG. 8F).
Western blotting: Semifluent HEKa cells were serum-starved for 3 hours and then stimulated with 10 μg/ml DRGN-1 or HKGS for 5-30 minutes at 37° C. AG1478 (0.2 μM final) was added 10 minutes prior to DRGN-1 or HKGS treatment. Cells were lysed with 2×Laemmli sample buffer (Bio-Rad; Hercules, Calif.) containing 5 mM sodium fluoride and 2 mM sodium vanadate. Cell lysates were separated on a 4-12% SDS-PAGE gel and transferred to polyvinylidene difluoride membrane using an iBlot system (Invitrogen). The membranes were probed with antibodies specific to phospho-EGFR and EGFR (Cell Signaling). […]

STAT3 = experiment: Western blotting, STAT3 phosphorylation; type: cell-based, human; conditions: 10 μg/ml DRGN-1, HEKa cells
[7] = 20 μg/wound topically every other day until day 6

Row | Sequence | Membrane depolarization relative to Triton X-100 (P. aeruginosa ATCC 9027) | Conformation (CD) [2] | α-helical content [2] [%] | Migration of HEKa cells into the wounded area (HEKa cells) | Wound area compared to original wound area [3] [%] | Bacterial counts of P. aeruginosa in wounds vs control group [4] | Bacterial counts of S. aureus in wounds vs control group [4] | further results
1 | SPKKTKPVKPKKVA [VK25, SPKKTKPVKPKKVA] | did not have any effect | random coil conformation | 32.8 | minimal, non-significant wound closure activity | 85 | only a slight reduction | no significant reduction | Killing of internalized bacteria [1]: but not VK25
2 | PSKKTKPVKPKKVA [DRGN-1, PSKKTKPVKPKKVA] | ~10% | random coil conformation | 22.3 | significantly increased | 41 | significantly reduced | significantly reduced | Biofilm formation, crystal violet staining (S. aureus biofilm): inhibited by DRGN-1 in a concentration-dependent manner; Biofilm, confocal microscopy (S. aureus biofilm): significantly reduced; also recorded: thinner and sparser than untreated controls; Biofilm formation, crystal violet staining (P. aeruginosa biofilm): inhibited by DRGN-1 in a concentration-dependent manner; Biofilm, confocal microscopy (P. aeruginosa biofilm): significantly reduced; also recorded: thinner and sparser than untreated controls; Biofilm, confocal microscopy [5]: significant inhibitory effect; also recorded: thinner and sparser than untreated controls; P. aeruginosa-induced killing of infected keratinocytes [1]: strongly prevented; DNA binding, times more tightly than VK25 [6]: at least 8 times; EGFR phosphorylation (EGFR): phosphorylated EGFR at 5 minutes, and the phosphorylation persisted for 20 minutes; STAT3 phosphorylation (STAT3): phosphorylated 10-30 minutes after the addition; Wound size vs PBS or VK25 ([3]; 20 μg/wound topically every 2 days): consistently smaller; Wound healing by day 11 [4, 7]: completely healed; Wound size vs buffer control, VK25 or LL-37 [4, 7]: consistently smaller; Skin layers, hematoxylin-eosin staining ([4]; day 11): completely rehabilitated

— patent US10633420B2, “Antimicrobial peptides with wound healing activity” (priority 2016, dated 2020)
